Source: article doi:10.1101/2023.04.24.538075 (bioRxiv, 2023)
These are yes or no findings as the source states them, for the method shown. Values belong to the substance of their own block, whether it stands above or below them.

The chains behind the UniProt entries cited, without tags or fusion partners.
UniProt P19073: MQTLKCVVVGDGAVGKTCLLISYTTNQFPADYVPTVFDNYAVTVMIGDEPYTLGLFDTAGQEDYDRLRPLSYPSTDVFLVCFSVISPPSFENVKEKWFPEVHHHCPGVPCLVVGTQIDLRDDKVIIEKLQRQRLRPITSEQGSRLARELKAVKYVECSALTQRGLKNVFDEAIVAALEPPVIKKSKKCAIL

Key:
[1] = biological target: H-SS-Cdc42-F (S. cerevisiae) (UniProt P19073); assay: SDS-Page with Western blot
H-Bem1-F (S. cerevisiae) = biological target: T1, H-Bem1-F (S. cerevisiae) (UniProt P29366); assay: pull-down
T1 sequence: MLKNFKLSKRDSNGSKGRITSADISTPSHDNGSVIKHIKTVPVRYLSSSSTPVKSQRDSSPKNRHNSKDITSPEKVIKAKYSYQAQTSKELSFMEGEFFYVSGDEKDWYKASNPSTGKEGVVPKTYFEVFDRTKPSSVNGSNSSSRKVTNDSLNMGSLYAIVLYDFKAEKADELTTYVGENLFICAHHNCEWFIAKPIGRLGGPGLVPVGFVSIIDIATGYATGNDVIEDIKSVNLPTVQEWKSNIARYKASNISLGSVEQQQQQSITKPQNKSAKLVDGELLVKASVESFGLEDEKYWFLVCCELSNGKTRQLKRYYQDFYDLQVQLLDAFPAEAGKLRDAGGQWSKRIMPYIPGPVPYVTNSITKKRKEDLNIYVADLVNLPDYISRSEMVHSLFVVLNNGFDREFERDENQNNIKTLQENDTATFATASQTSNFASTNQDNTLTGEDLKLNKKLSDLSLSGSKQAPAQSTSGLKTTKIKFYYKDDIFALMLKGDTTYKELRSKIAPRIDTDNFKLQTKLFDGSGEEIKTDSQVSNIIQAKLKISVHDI

[2] = biological target: SS-Cdc42-H (S. cerevisiae) (UniProt P19073); assay: SDS-Page with Western blot

binding [1]: no binding
Substance: H-SS-Cdc42-F (from UniProt P19073 1-191)

binding (H-Bem1-F (S. cerevisiae)): no binding
Substance: Ovalbumin (from UniProt P01012 1-386)

binding [2]: no binding
Substance: SS-Cdc42-H (from UniProt P19073 1-191)
